The results in this text go back to the supplement of paper PMC7125110.

The labels stand for the following.
B1: glmS ribozyme (parent)
chain: AUAAAAGCGCCAGAACUACAGAAAUGUAGUUGACGAGGAGGAGGUUUAUCGAAUUUUCGGCGGAUGCCUCCAAA

± gives the standard error. Many of these values have a large error.

In the first series the parent is B1. Nature of the series: KM; higher = weaker cofactor use; RNA array. As to conditions: with glucosamine-6-phosphate. Summed up:
(§1)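 Over ~14 h at 37 °C, tiles were imaged as glucosamine-6-phosphate (40 μM to 10 mM) in HEPES/KCl/Mg(OAc)2 buffer flowed across sequenced MiSeq chips. The chips carried barcoded ribozyme variants transcribed in situ by E. coli RNA polymerase and tracked with a hybridised Cy3 probe. After normalisation to baseline and to non-cleaving reference variants, one- or two-exponential decay fits of per-tile medians gave kobs. kcat and KM followed from weighted Michaelis–Menten fits across concentrations.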
The KM is the concentration of substrate that gives half-maximal velocity. For the variant AUAAAAGCGCCAGAACUACAGAAAUGUAGUUGACGAGGAGGAUGUUUAUCGAAAAUUCGGCGGAUGGUUCCAAA [G43U U54A U55A C67G C68U], the KM came to 10700 ± 7700 µM.

Take AUAAAAGCGCCAGAACUACAGAAAUGUAGUUGACGAGGAGGAUGUUUAUCGAAUUCUCGGCGGAUGCCUCCAAA [G43U U56C]: the KM was found to be 211 ± 110 µM.

In the case of AUAAAAGCGCCAGAACUACAGAAAUGUAGUUGACGAGGAGGAUGUUUAUCGAAUUAUCGGCGGAUGCCUCCAAA [G43U U56A], the KM worked out at 3380 ± 2200 µM.

With AUAAAAGCGCCAGAACUACAGAAAUGUAGUUGACGAGGAGGAGGGUUAUCGUAUUUUCGGCGGAUGCCUCCAAA [U45G A52U], the KM was 12200 ± 4700 µM.

On to AUAAAAGCGCCAGAACUACAGAAAUGUAGUUGACGAGGAGGAGGUCUAUCGAAUCUUCGGCGGAUGCCUCCAAA [U46C U55C], for which the KM was 3630 ± 1700 µM.

With AUAAAAGCGCCAGAACUACAGAAAUGUAGUUGACGAGGAGGAGGUAUAUCGAAUUGUCGGCGGAUGCCUCCAAA [U46A U56G], the Michaelis-Menten constant (KM) amounted to 3570 ± 1800 µM.

Consider AUAAAAGCGCCAGAACUACAGAAAUGUAGUUGACGAGGAGGUGGUUUAUCGAAUUUUCGGCGGAUGCCUACAAA [A42U C70A], for which the Michaelis constant (KM) amounted to 813 ± 290 µM.

With AUAAAAGCGCCAGAACUACAGAAAUGUAGUUGACGAGGAGGUGGUUUAUCGACUUUUCGGCGGAUGCCUCCAAA [A42U A53C], the KM is 3050 ± 1500 µM.

AUAAAAGCGCCAGAACUACAGAAAUGUAGUUGACGAGGAGGAGAUGUAUCGAAUUUUCGGCGGAUGCCUCCAAA [G44A U46G]: the KM came to 979 ± 500 µM.

As to AUAAAAGCGCCAGAACUACAGAAAUGUAGUUGACGAGGAGGAGCUUUAUCGAAUCUUCGGCGGAUGCCUCCAAA [G44C U55C], the KM came out at 125 ± 78 µM.

Regarding AUAAAAGCGCCAGAACUACAGAAAUGUAGUUGACGAGGAGGAGGUAUAUCGAAUUUUCGGCGGAUGCCUUCAAA [U46A C70U], the KM amounted to 1440 ± 970 µM.

AUAAAAGCGCCAGAACUACAGAAAUGUAGUUGACGAGGAGGAGUUUUAUCGAAUUUUCGGCGGAUGCCUUCAAA [G44U C70U]: the KM worked out at 861 ± 820 µM.

On to AUAAAAGCGCCAGAACUACAGAAAUGUAGUUGACGAGGAGGAGUUUUAUCGAAAUUUCGGCGGAUGCCUCCAAA [G44U U54A], for which the KM turned out to be 983 ± 780 µM.

Regarding AUAAAAGCGCCAGAACUACAGAAAUGUAGUUGACGAGGAGGAGGUAUAUCGAGUUUUCGGCGGAUGCCUCCAAA [U46A A53G], the Michaelis-Menten constant (KM) came to 1090 ± 610 µM.

Regarding AUAAAAGCGCCAGAACUACAGAAAUGUAGUUGACGAGGAGGAGGAUUAUCGAAUUCUCGGCGGAUGCCUCCAAA [U45A U56C], the KM is 3070 ± 1400 µM.

Take AUAAAAGCGCCAGAACUACAGAAAUGUAGUUGACGAGGAGGAGCUUUAUCGAAUUUUCGGCGGAUGCCUCCAAA [G44C]: the Michaelis-Menten constant (KM) is 1980 ± 570 µM.

For AUAAAAGCGCCAGAACUACAGAAAUGUAGUUGACGAGGAGGAGGAUUAUCGAAUUUUCGGCGGAUGCCUCUAAA [U45A C71U], the KM was 2060 ± 810 µM.

On to AUAAAAGCGCCAGAACUACAGAAAUGUAGUUGACGAGGAGGAGGAUUAUCGAAUUUUCGGCGGAUGCCUCAAAA [U45A C71A], for which the Michaelis-Menten constant (KM) stood at 1010 ± 610 µM.

On to AUAAAAGCGCCAGAACUACAGAAAUGUAGUUGACGAGGAGGAGGAUUAUCGAAUUUUCGGCGGAUGCCUCGAAA [U45A C71G], for which the KM worked out at 458 ± 340 µM.

Regarding AUAAAAGCGCCAGAACUACAGAAAUGUAGUUGACGAGGAGGACGUUUAUCGAAUUUUCGGCGGAUGCUUCCAAA [G43C C68U], the Michaelis-Menten constant (KM) was 1370 ± 190 µM.

For the variant AUAAAAGCGCCAGAACUACAGAAAUGUAGUUGACGAGGAGGAGGAUUAUCGAAUAUUCGGCGGAUGCCUCCAAA [U45A U55A], the Michaelis-Menten constant (KM) came to 312 ± 200 µM.

For the variant AUAAAAGCGCCAGAACUACAGAAAUGUAGUUGACGAGGAGGAGUUUUAUCGAAUUUUCGGCGGAUACCUCCAAA [G44U G66A], the Michaelis constant (KM) amounted to 1210 ± 650 µM.

For AUAAAAGCGCCAGAACUACAGAAAUGUAGUUGACGAGGAGGAGGAUUAUCGAAUUUUCGGCGGCUGCCUCCAAA [U45A A64C], the Michaelis-Menten constant (KM) was 2520 ± 570 µM.

Regarding AUAAAAGCGCCAGAACUACAGAAAUGUAGUUGACGAGGAGGAGGAUUAUCGAAUUUUCGGCGGGUGCCUCCAAA [U45A A64G], the Michaelis constant (KM) amounted to 600 ± 260 µM.

With AUAAAAGCGCCAGAACUACAGAAAUGUAGUUGACGAGGAGGGGAUUUAUCGAAUUUUCGGCGGAUGCCUCCAAA [A42G G44A], the KM worked out at 2550 ± 2000 µM.

Consider AUAAAAGCGCCAGAACUACAGAAAUGUAGUUGACGAGGAGGAUGUUUAUCGAAUUUUCGGCGGAUGCGUCCAAA [G43U C68G], for which the KM was found to be 527 ± 180 µM.

With AUAAAAGCGCCAGAACUACAGAAAUGUAGUUGACGAGGAGGAGCUUGAUCGAAUUUUCGGCGGAUUGCUCCAAA [G44C U47G G66U C67G], the KM stood at 2230 ± 1300 µM.

For AUAAAAGCGCCAGAACUACAGAAAUGUAGUUGACGAGGAGGAUGUUUAUCGAAUUUUCGGCGGAGGCCUCCAAA [G43U U65G], the Michaelis constant (KM) came out at 2380 ± 190 µM.

Regarding AUAAAAGCGCCAGAACUACAGAAAUGUAGUUGACGAGGAGGAGGAUUAUCGAAUUUUAGGCGGAUGCCUCCAAA [U45A C58A], the KM is 3370 ± 1700 µM.

In the next series the parent is B1. Nature of the series: self-cleavage kobs at 2500 uM GlcN6P; higher = faster cleavage; RNA array. As to conditions: with glucosamine-6-phosphate. Summed up: as §1
AUAAAAGCGCCAGAACUACAGAAAUGUAGUUGACGAGGAGGAUGUUUAUCGAAAAUUCGGCGGAUGGUUCCAAA [G43U U54A U55A C67G C68U]: the “self-cleavage kobs at 2500 uM GlcN6P” value stood at 3.17e-05 ± 2.5e-05 s⁻¹.

With AUAAAAGCGCCAGAACUACAGAAAUGUAGUUGACGAGGAGGAGCUUUAUCGAAUCUUCGGCGGAUGCCUCCAAA [G44C U55C], the “self-cleavage kobs at 2500 uM GlcN6P” value came to 3.04e-05 ± 1.6e-05 s⁻¹.

As for AUAAAAGCGCCAGAACUACAGAAAUGUAGUUGACGAGGAGGAGGAUUAUCGAAUUUUCGGCGGAUGCCUCUAAA [U45A C71U], the “self-cleavage kobs at 2500 uM GlcN6P” value stood at 0.0611 ± 0.033 s⁻¹.

With AUAAAAGCGCCAGAACUACAGAAAUGUAGUUGACGAGGAGGAGGAUUAUCGAAUUUUCGGCGGGUGCCUCCAAA [U45A A64G], the “self-cleavage kobs at 2500 uM GlcN6P” value stood at 0.0536 ± 0.032 s⁻¹.

Regarding AUAAAAGCGCCAGAACUACAGAAAUGUAGUUGACGAGGAGGAUGUUUAUCGAAUUUUCGGCGGAGGCCUCCAAA [G43U U65G], the “self-cleavage kobs at 2500 uM GlcN6P” value was 2.27e-05 ± 1.7e-05 s⁻¹.

Variants of B1 are the subject of a further series. Nature of the series: self-cleavage kobs at 40 uM GlcN6P; higher = faster cleavage; RNA array. The following applies: with glucosamine-6-phosphate. The method in brief: as §1
Consider AUAAAAGCGCCAGAACUACAGAAAUGUAGUUGACGAGGAGGAGGUAUAUCGAAUUGUCGGCGGAUGCCUCCAAA [U46A U56G], for which the “self-cleavage kobs at 40 uM GlcN6P” value came to 3.22e-05 ± 1.8e-05 s⁻¹.

On to AUAAAAGCGCCAGAACUACAGAAAUGUAGUUGACGAGGAGGACGUUUAUCGAAUUUUCGGCGGAUGCUUCCAAA [G43C C68U], for which the “self-cleavage kobs at 40 uM GlcN6P” value was found to be 1.53e-05 ± 1.2e-05 s⁻¹.

Consider AUAAAAGCGCCAGAACUACAGAAAUGUAGUUGACGAGGAGGAGGAUUAUCGAAUUUUAGGCGGAUGCCUCCAAA [U45A C58A], for which the “self-cleavage kobs at 40 uM GlcN6P” value is 3.26e-05 ± 3.2e-05 s⁻¹.

Another series covers variants of B1. The experiment in a line: self-cleavage kobs at 160 uM GlcN6P; higher = faster cleavage; RNA array. As to conditions: with glucosamine-6-phosphate. The method in brief:
as §1
On to AUAAAAGCGCCAGAACUACAGAAAUGUAGUUGACGAGGAGGAGGAUUAUCGAAUUUUAGGCGGAUGCCUCCAAA [U45A C58A], for which the “self-cleavage kobs at 160 uM GlcN6P” value came to 3.34e-05 ± 2.1e-05 s⁻¹.
